No constants are given. Whether binding was seen depends on the method and setting. Binding seen in cells or lysates may run through a third protein. These calls come from enrichment with a bait or labelling near it, and not all partners need be listed.

Protein sequences, listed by entry. Tags and fused reporters are not part of them.
UniProt P92177: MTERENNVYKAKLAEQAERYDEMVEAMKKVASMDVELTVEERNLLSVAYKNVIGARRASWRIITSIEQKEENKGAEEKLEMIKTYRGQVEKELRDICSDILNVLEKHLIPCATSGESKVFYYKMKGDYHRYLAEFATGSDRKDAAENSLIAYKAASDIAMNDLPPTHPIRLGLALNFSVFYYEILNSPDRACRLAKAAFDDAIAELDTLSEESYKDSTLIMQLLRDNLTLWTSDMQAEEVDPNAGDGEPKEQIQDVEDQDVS
UniProt Q963E5: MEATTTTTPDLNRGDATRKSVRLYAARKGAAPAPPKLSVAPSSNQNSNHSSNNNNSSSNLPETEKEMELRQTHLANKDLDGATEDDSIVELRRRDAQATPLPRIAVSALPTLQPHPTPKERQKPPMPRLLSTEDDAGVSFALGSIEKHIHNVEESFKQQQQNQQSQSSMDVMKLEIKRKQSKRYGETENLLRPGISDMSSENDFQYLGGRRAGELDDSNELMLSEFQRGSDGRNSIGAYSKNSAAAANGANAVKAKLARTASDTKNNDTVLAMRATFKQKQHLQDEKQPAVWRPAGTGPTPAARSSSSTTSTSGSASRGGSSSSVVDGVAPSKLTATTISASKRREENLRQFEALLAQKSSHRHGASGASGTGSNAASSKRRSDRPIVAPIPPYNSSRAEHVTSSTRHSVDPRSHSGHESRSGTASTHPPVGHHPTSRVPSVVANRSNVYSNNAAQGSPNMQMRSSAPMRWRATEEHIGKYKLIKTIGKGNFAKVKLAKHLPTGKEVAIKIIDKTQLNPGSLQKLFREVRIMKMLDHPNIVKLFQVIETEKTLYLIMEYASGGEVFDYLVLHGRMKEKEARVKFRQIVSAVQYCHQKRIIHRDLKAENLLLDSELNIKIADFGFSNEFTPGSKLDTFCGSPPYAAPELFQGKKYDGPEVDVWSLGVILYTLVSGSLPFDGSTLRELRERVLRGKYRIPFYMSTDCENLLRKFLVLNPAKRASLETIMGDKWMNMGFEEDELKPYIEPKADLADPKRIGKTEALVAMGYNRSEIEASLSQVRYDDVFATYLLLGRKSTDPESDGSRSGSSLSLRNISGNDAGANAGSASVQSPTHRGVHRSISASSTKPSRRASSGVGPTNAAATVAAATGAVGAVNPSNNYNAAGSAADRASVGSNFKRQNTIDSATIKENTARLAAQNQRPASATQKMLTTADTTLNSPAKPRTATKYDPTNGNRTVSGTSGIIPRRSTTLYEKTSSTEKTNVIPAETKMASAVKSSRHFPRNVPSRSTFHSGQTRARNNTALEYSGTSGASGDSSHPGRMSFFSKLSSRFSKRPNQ

For the test, the target named is GST–14-3-3ε (Drosophila melanogaster) (UniProt P92177). As to the kind of experiment: affinity purification with mass spectrometry; recombinant GST–14-3-3ε on glutathione beads, pulldown from ovary or S2 cultured cell extract; gel lanes digested with trypsin, Velos LTQ Orbitrap, MASCOT; only the target purified.

For the molecule Par-1 (from UniProt Q963E5 1-1058), the binding result is reported as “binds”.

B1: endogenous Ncd protein (protein, UniProt P20480 1-700)
chain: MESRLPKPSGLKKPQMPIKTVLPTDRIRAGLGGGAAGAGAFNVNANQTYCGNLLPPLSRDLNNLPQVLERRGGGARAASPEPMKLGHRAKLRRSRSACDINELRGNKRTAAAPSLPSIPSKVSRLGGALTVSSQRLVRPAAPSSITATAVKRPPVTRPAPRAAGGAAAKKPAGTGAAASSGAAAAAPKRIAPYDFKARFHDLLEKHKVLKTKYEKQTEDMGELESMPQQLEETQNKLIETESSLKNTQSDNECLQRQVKQHTAKIETITSTLGRTKEELSELQAIHEKVKTEHAALSTEVVHLRQRTEELLRCNEQQAAELETCKEQLFQSNMERKELHNTVMDLRGNIRVFCRIRPPLESEENRMCCTWTYHDESTVELQSIDAQAKSKMGQQIFSFDQVFHPLSSQSDIFEMVSPLIQSALDGYNICIFAYGQTGSGKTYTMDGVPESVGVIPRTVDLLFDSIRGYRNLGWEYEIKATFLEIYNEVLYDLLSNEQKDMEIRMAKNNKNDIYVSNITEETVLDPNHLRHLMHTAKMNRATASTAGNERSSRSHAVTKLELIGRHAEKQEISVGSINLVDLAGSESPKTSTRMTETKNINRSLSELTNVILALLQKQDHIPYRNSKLTHLLMPSLGGNSKTLMFINVSPFQDCFQESVKSLRFAASVNSCKMTKAKRNRYLNNSVANSSTQSNNSGSFDK
In the case of B1, the binding result is “binds”.

B2: 14-3-3ζ (protein, UniProt P29310 1-248)
chain: MSTVDKEELVQKAKLAEQSERYDDMAQAMKSVTETGVELSNEERNLLSVAYKNVVGARRSSWRVISSIEQKTEASARKQQLAREYRERVEKELREICYEVLGLLDKYLIPKASNPESKVFYLKMKGDYYRYLAEVATGDARNTVVDDSQTAYQDAFDISKGKMQPTHPIRLGLALNFSVFYYEILNSPDKACQLAKQAFDDAIAELDTLNEDSYKDSTLIMQLLRDNLTLWTSDTQGDEAEPQEGGDN
As for B2, the binding entry is on record as “binds”.
